Reference: PubChem BioAssay AID624291 (National Center for Advancing Translational Sciences (NCATS), 2012)
About 220 (0.063%) of roughly 350,000 compounds were called active. Inconclusive results, whose numbers are uncertain, are shown with a selection of clear calls. The call rests on the fitted dose curve; in most records, active means well fitted activation curve with a large enough effect; inconclusive means small, poorly fitted or top-dose-only effect; inactive means no such curve, though single readings can be large or run the other way. Where the call is inconclusive, the potency comes from a doubtful curve fit.

Experiment: qHTS for Activators of Integrin-Mediated Alleviation for Muscular Dystrophy; further: nearly all actives have a fitted effect of over 60% in size;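 on activation: 100% = response of the positive control SU9516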
Conditions: alpha7betagal myoblasts, beta-gal FDG fluorescence, 48 h; activation: at 38.3 µM (top of the series)
Outline: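 Alpha7betagal+/- myoblasts (passage 13) were plated 16-24 hr, then exposed to compounds (1:260 dilution of DMSO stock) for 48 hours at 37C. After MPER lysis, β-galactosidase reporter activity was read as FDG fluorescence (ex 480/em 540) after 30 minutes.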
Potency means the concentration at half of the fitted maximal effect.

Potency, inactive:
CC1CN(C(=O)COc2ccc3ccccc3c2Br)CC(C)O1 (configuration not stated)
CCOC(=O)Cc1nn(CC)c(=O)c2ccccc12
COc1ccc(OC)c(NC(=O)C2COc3ccccc3O2)c1 (configuration not stated)
CC(C)n1c(Nc2ccccc2)nc2ccccc21
CC(C)c1ccc(-c2nn(-c3ccccc3)cc2C(=O)NCC2CCCO2)cc1 (configuration not stated)
O=C(NCc1cccnc1)C12CC3CC(CC(Cl)(C3)C1)C2
O=C1OC(c2ccc3ccccc3c2O)(c2ccc3ccccc3c2O)c2ccccc21
CCC(=O)c1ccc(OCc2ccc(C#N)cc2)cc1
CC1CC(NNC(=O)c2ccccc2)=Nc2ccccc2N1C (configuration not stated)
O=C(/C=C/c1ccccc1)NC(=S)Nc1ccccc1O
O=C(COc1ccc(Cl)c(Cl)c1)NN1C(=O)C2C(C1=O)C1C=CC2C12CC2 (configuration not stated)
CC(=O)NC(CCS(C)(=O)=O)C(=O)Nc1ccccc1Cl (configuration not stated)
CCCCNC(=O)c1onc(CSc2ccccc2)c1C(=O)NCCCC
Cc1ccc(S(=O)(=O)NCc2ccccc2)cc1C(=O)NCC(=O)Nc1c(C)cccc1C
N#CCSc1nc2[nH]ncc2c(=O)n1-c1ccccc1Br
COc1ccc(C(=O)OCC(=O)c2ccc[nH]2)c(OC)c1
CCOC(=O)N/N=C/C(Cl)=C/c1ccccc1
Fc1ccc(CN2CCN3CCCC3C2C2CCCCC2)cc1F (configuration not stated)
CCc1ccc(NC(=O)COc2ccc(/C=C(/C#N)c3nc4ccccc4[nH]3)cc2OC)cc1
COc1ccc(OC)c(NC(=S)N(CCc2c(C)[nH]c3ccc(C)cc23)Cc2cccs2)c1
Cc1cccc(C)c1OCc1cc(C(=O)N2CCN(c3ccccc3)CC2C)no1 (configuration not stated)
CN(C)CCCN(C(=O)c1ccc2c(c1)CCCC2)c1nc2c(F)cccc2s1
COc1cccc(C(=O)C2CCCN(C(=O)CCc3scnc3C)C2)c1 (configuration not stated)
O=C(Nc1ccccc1SC(=O)c1ccccc1)c1ccccc1
COc1ccc(Nc2nc(Cl)nc(NCc3ccco3)n2)c(OC)c1
O=[N+]([O-])c1ccc(N2CCN(C(=S)Nc3ccc(F)cc3F)CC2)cc1

Potency, inconclusive:
COc1ccc(-c2nc(CS(=O)CC(=O)N3CCN(C)CC3)c(C)o2)cc1 (configuration not stated) 2.51 µM [activator, single point]
Cc1cccc(NC(=O)Nc2cnccn2)c1 1.12 µM [activator, partial curve, poor fit]
Nc1ccc(S(=O)(=O)Nc2nc3ccccc3o2)cc1 3.16 µM [activator, single point]
Cc1oc2ccc(OC(=O)c3cccs3)cc2c1C(=O)OC(C)C 28.2 µM [activator, single point]
Cc1ccnc(NC(=O)c2cc(F)c(F)cc2Cl)n1 22.4 µM [activator, single point]
O=C(Nc1csc(Cl)c1)c1ccccc1 5.01 µM [activator, single point]
CCN1/C(=C2\SC(=S)N(Cc3ccccc3)C2=O)Sc2ccccc21 28.2 µM [activator, single point]
CC1CCN(C(=O)CCC(=O)N2CC(C)Oc3ccccc32)CC1 (configuration not stated) 3.16 µM [activator, single point]
CN1CCN(CCCC(=O)c2ccc(C3CCCC3)cc2)CC1 28.2 µM [activator, single point]
COc1ccc(C(=O)NC(Cc2c[nH]c3ccccc23)C(=O)O)cc1 (configuration not stated) 0.501 µM [activator, partial curve, poor fit]
O=C(Nc1sc2c(c1C(=O)O)CCCCC2)c1cccnc1 28.2 µM [activator, single point]
N#CC1(NC(=O)COC(=O)C23CC4CC(CC(O)(C4)C2)C3)CCCCC1 4.47 µM [activator, partial curve, poor fit]
COc1cc(CC(=O)NNC(=O)c2cccs2)cc(OC)c1OC 3.16 µM [activator, single point]
COc1ccc(NC(=O)C2CCC(CNS(=O)(=O)c3csc(C(N)=O)c3)CC2)cc1OC (configuration not stated) 28.2 µM [activator, single point]
CCCN(C(=O)c1cc(S(=O)(=O)N2CCCCC2)ccc1Cl)C1CCS(=O)(=O)C1 (configuration not stated) 5.01 µM [activator, single point]
O=C1NC(=O)C(Cc2ccc(Cl)cc2)(c2ccccc2)N1 (configuration not stated) 5.01 µM [activator, single point]
O=C(OCc1ccc(-c2ccccc2)cc1)c1cccc(O)c1 5.01 µM [activator, single point]
O=C(Nc1ccc(S(=O)(=O)N2CCCCC2)cc1)C1CCN(C(=O)c2ccco2)CC1 5.01 µM [activator, single point]
COc1ccc(CNC(=O)CSc2nc3ccc(OC)cc3[nH]2)cc1 0.447 µM [activator, partial curve, poor fit]
CC(C)Nc1nnc(SC(C)C(=O)Nc2ccc(Cl)cn2)s1 (configuration not stated) 4.47 µM [activator, partial curve, poor fit]
O=C(Nc1nccs1)c1cccc(S(=O)(=O)N2CCCC2)c1 5.01 µM [activator, single point]
O=C(CSc1nc2[nH]ncc2c(=O)n1-c1ccccc1Br)NCc1ccccc1Cl 25.1 µM [activator, partial curve, poor fit]
NS(=O)(=O)c1ccc(NC(=O)COC(=O)c2cccc(S(=O)(=O)N3CCCC3)c2)cc1 2.51 µM [activator, partial curve, poor fit]
CCCCN1C(=O)Cc2c1nc(N)c1c(N)nc(N(CCC)CCC)c(C#N)c21 5.01 µM [activator, single point]
CCOc1ccc(CCN2C(=O)c3cccnc3C2=O)cc1OCC 0.355 µM [activator, full curve, poor fit]
O=C(O)CSc1nnc(Cc2ccccc2)n1-c1ccccc1 10 µM [activator, partial curve, poor fit]
Cc1ccc(NC(=O)c2ccc(OCC3CCCO3)cc2)cc1 (configuration not stated) 3.16 µM [activator, single point]
CCOC(=O)C1(CCCc2ccccc2)CCN(C(=O)C(C)n2cncn2)CC1 (configuration not stated) 3.16 µM [activator, single point]
Cc1cccc(C(=O)N(CCc2ccccc2)Cc2ccccc2)c1[N+](=O)[O-] 3.55 µM [activator, single point]
Nc1cnn(C2OC(CO)C(O)C2O)c(=O)n1 (configuration not stated) 0.501 µM [activator, full curve, poor fit]
COc1cccc(OC)c1C(=O)OCC(=O)N(C)c1ccccc1 0.501 µM [activator, full curve, poor fit]
CCCc1nn(C)c(C(=O)Nc2cccc(CC)c2)c1Cl 5.01 µM [activator, full curve, poor fit]
CCSc1ccccc1C(=O)NCc1ccc2c(c1)OCO2 5.01 µM [activator, single point]
CC(C)c1nnc(NC(=O)CSc2nnc(NC(=O)c3c(F)cccc3F)s2)s1 2.51 µM [activator, single point]
Cc1c(NS(=O)(=O)c2cccc(C(=O)O)c2)c(=O)n(-c2ccccc2)n1C 12.6 µM [activator, partial curve, poor fit]
Cc1ccc2c(C)nc(Nc3nc(CSc4nc5ccccc5s4)cc(=O)[nH]3)nc2c1 3.55 µM [activator, partial curve, poor fit]
C=CCNC(=O)c1cc2c(=O)n3ccccc3nc2s1 3.16 µM [activator, partial curve, poor fit]
Cc1ccsc1C(=O)OCC(=O)Nc1ccc(Cl)cc1C(F)(F)F 12.6 µM [activator, single point]
COCCNC(=O)C(=O)NCC1OCCN1S(=O)(=O)c1cc(F)ccc1F (configuration not stated) 3.55 µM [activator, single point]
COc1ccc2occ(NC(C)=O)c2c1 11.2 µM [activator, partial curve, poor fit]
COc1ccc(C(O)(C(C)C)C(CN2CCOCC2)c2ccccc2)cc1 (configuration not stated) 28.2 µM [activator, single point]
CCOC(=O)CCCCC(=O)c1[nH]c(=O)[nH]c1CSc1nc(-c2ccccc2)c(C#N)c(=O)[nH]1 11.2 µM [activator, partial curve, poor fit]
COC(=O)CN1C(=O)COc2ccc(S(=O)(=O)NCc3ccc(Cl)cc3)cc21 2.82 µM [activator, single point]
CC(C)OCCCNC(=O)Cn1nc(-c2ccccc2)ccc1=O 5.01 µM [activator, single point]

Retrieved one by one from above:
Potency, inconclusive:
Cc1ccnc(NC(=O)c2cc(F)c(F)cc2Cl)n1 22.4 µM [activator, single point]
CN1CCN(CCCC(=O)c2ccc(C3CCCC3)cc2)CC1 28.2 µM [activator, single point]
CCOc1ccc(CCN2C(=O)c3cccnc3C2=O)cc1OCC 0.355 µM [activator, full curve, poor fit]

Next part:

activation, inconclusive:
Cc1ccc(C(=O)NCCCNC(=O)COc2ccc(Cl)cc2)cn1 -74.8% [activator]

activation, inactive:
CC(C)Cn1c(-c2ccco2)n[nH]c1=S 5.87% [at 7.66 µM]
